Results deposited as PubChem BioAssay AID686943 (Drosophila RNAi Screening Center, 2013).
In all, the deposit lists about 23,000 reagents; shown is a random part of those that have a named target and a result. 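Extra replicates exist only for a retested subset of genes; insulin dose and duration not given; both raised and lowered dpERK matter.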 Not given: the amount of reagent, the time to read-out.

- Screen: 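Knockdowns that increase or decrease active ERK after insulin receptor stimulation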 (primary screen)
- System: Drosophila S2R+ haemocyte-like cells expressing YFP-tagged ERK (Rolled)
- Knock-down reagent: long dsRNA against Drosophila genes
- Challenge: insulin stimulation versus unstimulated cells; dose and duration not given
- Measured: 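Per-plate z-scores of phospho-ERK immunostaining normalised to YFP-tagged ERK, measured with and without insulin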
- Reading the numbers: replicate 1, z-score of dpERK with insulin and replicate 2, z-score of dpERK with insulin: higher = more active ERK per ERK-YFP after insulin; replicate 1, z-score of dpERK under basal conditions: higher = more basal active ERK per ERK-YFP; replicate 1, z-score of ERK-YFP with insulin: higher = more YFP-tagged ERK signal

no.	gene	dsRNA	replicate 1, z-score of dpERK with insulin	replicate 2, z-score of dpERK with insulin	replicate 1, z-score of dpERK under basal conditions	replicate 1, z-score of ERK-YFP with insulin
1	srw (shrew)	DRSC08201	-0.24	-0.26	-0.28	-0.35
2	Ars2 (Arsenic resistance protein 2)	DRSC04893	-1.01	0.07	-0.96	2.45
3	Letm1	DRSC04476	0.21	-0.1	-0.55	-0.28
4	CG11977	DRSC14454	-0.85	-1.18	-0.6	-1.35
5	Sac1 (Sac1 phosphatase)	DRSC08622	-0.68	-1.72	0.91	0.64
6	CG12343	DRSC06135	0.64	0.39	-0.26	-0.79
7	Nap1 (Nucleosome assembly protein 1)	DRSC04626	0.34	0.28	0.9	0.29
8	CG42827	DRSC16116	0.86	-1.41	-0.26	-0.57
9	CG42822	DRSC13232	0.96	0.39	-0.12	0.6
10	CG7742	DRSC03066	0.24	0.87	-0.34	0.49
11	CG5561	DRSC00688	0.7	0.7	-0.35	-0.62
12	CG42382	DRSC07671	0.28	0.68	0.07	0.42
13	sno (strawberry notch)	DRSC20378	-0.06	-0.73	-0.5	1.29
14	Magi	DRSC04247	0.22	0.62	0.62	0.81
15	Magi	DRSC04451	0.86	0.28	-0.58	-0.86
16	CheB98a (Chemosensory protein A 98a)	DRSC14882	0.77	0.01	0.19	0.03
17	CG45067	DRSC08414	0.54	-0.16	-0.15	-0.06
18	Cbp53E (Calbindin 53E)	DRSC07356	0.41	-0.03	1.01	0.36
19	AOX2 (Aldehyde oxidase 2)	DRSC15338	0.2	-1.37	0.2	0.35
20	CG11037	DRSC11631	0.44	0.58	-0.12	0.16
21	MBD-R2	DRSC14180	-1.19	-1.54	-1.4	2.51
22	TfIIA-S (Transcription-factor-IIA-S)	DRSC16883	1.33	-0.17	-1.3	0.09
23	CG3792	DRSC02725	0.83	-0.06	1.84	-0.83
24	TotX (Turandot X)	DRSC22206	-1.28	-0.43	-0.21	-0.78
25	CG14186	DRSC10185	0.68	0.57	-0.07	0.46
26	FucTC (alpha1,3-fucosyltransferase C)	DRSC20966	-0.4	-0.83	0.38	0.26
27	CG10026	DRSC02010	2.09	-0.04	0.09	-0.42
28	CG40551 (retired record)	DRSC21229	0.62	-0.18	-0.17	0.16
29	CG32846	DRSC08012	0.08	0.02	0.58	0.12
30	Pax (Paxillin)	DRSC01703	0.51	1.12	-0.16	-0.19
31	Pax (Paxillin)	DRSC02651	0.45	0.04	0.78	1
32	Pax (Paxillin)	DRSC02652	-0.45	-0.81	1	0.65
33	Fur2 (Furin 2)	DRSC19817	0.6	-0.3	-0.02	-0.16
34	Gfat2 (Glutamine:fructose-6-phosphate aminotransferase 2)	DRSC14598	0.33	-0.59	-0.2	0.42
35	CG12496	DRSC18602	-0.36	-0.41	-1.05	3.14
36	SelR (Selenoprotein R)	DRSC16071	-0.49	0.02	-0.34	0.06
37	CG3788	DRSC04418	1.39	0.15	-0.14	-0.36
38	iav (inactive)	DRSC18363	-0.41	0.32	-0.51	0.96
39	CG31816	DRSC01547	-1.85	-1.29	-0.99	0.11
40	Topors (Topoisomerase I-interacting protein)	DRSC06531	1.84	1.47	-1.4	-3.92
41	CG14780	DRSC18566	-0.4	-0.44	0.43	0.89
42	twit (target of wit)	DRSC03210	0.34	0.33	0.54	0.92
43	l(3)80Fg (lethal (3) 80Fg)	DRSC21645	-0.87	-0.32	1.46	0.89
44	l(3)80Fg (lethal (3) 80Fg)	DRSC22171	0.23	0.87	0.92	1.07
45	E(spl)mbeta-HLH (Enhancer of split mbeta, helix-loop-helix)	DRSC16697	-0.01	0.07	-0.05	0.34
46	CG6345	DRSC16024	1.15	0.58	0.58	-0.01
47	CG13043	DRSC09924	-0.16	-0.01	-0.74	0.38
48	CG6793	DRSC10714	0.97	0.29	-0.01	0.37
49	CG18581	DRSC10324	0.83	1.15	-0.05	-0.16
50	CG41520	DRSC21102	-0.47	0.61	0.82	0.01
51	CG41520	DRSC21103	-0.23	0.03	-0.45	0.15
52	CG6937	DRSC16140	-0.25	-1	-1.71	-0.68
53	CG14204	DRSC19559	-0.19	-0.3	-0.99	-1.58
54	CG14253	DRSC14748	-0.61	-0.32	1.48	0.61
55	CG32639	DRSC18972	0.35	0.5	-0.98	0.23
56	CG4701	DRSC01952	-0.93	-1.47	-1.89	1.29
57	CG31087	DRSC14253	-0.21	-0.01	1.13	-1.54

3 consecutive reagents already listed, quoted:
no.	gene	dsRNA	replicate 1, z-score of dpERK with insulin	replicate 2, z-score of dpERK with insulin	replicate 1, z-score of dpERK under basal conditions	replicate 1, z-score of ERK-YFP with insulin
20	CG11037	DRSC11631	0.44	0.58	-0.12	0.16
21	MBD-R2	DRSC14180	-1.19	-1.54	-1.4	2.51
22	TfIIA-S (Transcription-factor-IIA-S)	DRSC16883	1.33	-0.17	-1.3	0.09
